Laboratory results from PubChem BioAssay AID485314 (National Center for Advancing Translational Sciences (NCATS), 2010).
Among all 340,000 compounds or so, about 4,500 (1.3%) were called active. The inconclusive results got no clear call from the source; some entries with a clear call stand among them for comparison. The call rests on the fitted dose curve; in most records, active means well fitted inhibition curve with a large enough effect; inconclusive means small, poorly fitted or top-dose-only effect, or another doubt; inactive means no such curve, though single readings can be large or run the other way. A potency beside an inconclusive call is a rough fit, not a confirmed value.

What follows are molecules tested against DNA polymerase beta (Homo sapiens) (UniProt P06746) (assay: qHTS Assay for Inhibitors of DNA Polymerase Beta). Conditions: Pol beta primer extension/strand displacement, fluorescence kinetic; activity change, negative = inhibition: at 114 µM (top of the series).
Summary of the method: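 Preincubation: enzyme (10 nM) with compound, 15 min, RT. Reaction: substrate added to 50 nM final. Reads: 0 and 10 min. Analysis: normalized, Hill fit.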
On the % scale 0 is the no-effect control and ±100 the full control effect; potency means the concentration at half of the fitted maximal effect.

Compound | activity change, negative = inhibition | Potency
CCN1CCN(C(=O)c2[nH]c3ccc(OC)cc3c2C)CC1 | inactive: 36.3% | 
CCc1ccc(/C=C2\SC(=S)N(CCCC(=O)Nc3ccccc3C(=O)O)C2=O)cc1 |  | inconclusive: 20 µM [inhibitor, single point]
CCOC(=O)c1sc2nc3c(SCCC(=O)O)cc(C(=O)c4cc(OC)ccc4O)cn3c(=O)c2c1C |  | active: 2.82 µM
O=C(CSc1nnc2c(n1)[nH]c1ccccc12)OCc1ccccc1 |  | inconclusive: 20 µM [inhibitor, partial curve]
Cc1ccc(S(=O)(=O)c2nnn3c2nc(N2CCC(C)CC2)c2cc(Cl)ccc23)cc1C | inactive: 2.51% | 
CCC1C(=O)CC(c2ccc([N+](=O)[O-])cc2)NC1c1ccc([N+](=O)[O-])cc1 (configuration not stated) |  | inconclusive: 1 µM [inhibitor, partial curve]
CCN1C(=O)c2ccccc2S(=O)c2ccc(C(=O)N3CCN(c4ccccc4)CC3)cc21 (configuration not stated) |  | inconclusive: 100 µM [inhibitor, single point]
COC(=O)c1cccc(NC(=S)NCCC2=CCCCC2)c1 |  | inconclusive: 6.31 µM [inhibitor, full curve]
O=C(NCC1CCCO1)c1ccccn1 (configuration not stated) |  | inconclusive: 0.708 µM [inhibitor, full curve, poor fit]
O=[N+]([O-])c1ccc(Cl)c(-c2ccc(/C=N/c3c(-c4ccco4)nc4ccccn34)o2)c1 |  | active: 50.1 µM
CCc1nnc(NC(=O)C(CC)c2ccccc2)s1 (configuration not stated) |  | inconclusive: 89.1 µM [inhibitor, single point]
CCOC(=O)Cc1csc(NC(=O)c2sc3nc4ccc(CC)cc4cc3c2N)n1 |  | active: 5.62 µM
C/C(=C\c1ccc(C(=O)O)cc1)c1ccc2c(c1)C(C)(C)CCC2(C)C |  | inconclusive: 35.5 µM [inhibitor, single point]
CC(C)CC(=O)Nc1ccc(C(=O)COc2ccc(-c3nnco3)cc2)cc1 |  | inconclusive: 50.1 µM [inhibitor, partial curve]
Cc1cccc(NC(=O)CN2C(=O)c3ccccc3Sc3ncccc32)c1C | inactive: 23.5% | 
C=C(C)C(=O)Nc1cccc(C2=NOC3(C2)C[C@H](C(N)=O)N(C(=O)CC)C3)c1 (some centres not stated) |  | active: 3.55 µM
CCSC1=NSC2=NC(=O)/C(=C\c3coc4ccccc4c3=O)C(=N)N12 |  | active: 28.2 µM
CC(C)(C)C1=CC(O)(c2ccccc2)C=C(C(C)(C)C)C1=O |  | inconclusive: 89.1 µM [inhibitor, single point]
O=C(CCN1C(=O)/C(=C/c2cccs2)SC1=S)Nc1cccc(C(=O)O)c1 |  | inconclusive: 79.4 µM [inhibitor, single point]
Cc1cc(Cl)c2oc(C(=O)N(C)C(C)c3ccccn3)c(C)c2c1 (configuration not stated) |  | inconclusive: 100 µM [inhibitor, single point]
COC(=O)CSc1nc2c(c(C3CC=CCC3)c1C#N)CCC2 (configuration not stated) |  | inconclusive: 89.1 µM [inhibitor, partial curve, poor fit]

Compound | activity change, negative = inhibition | Potency
COc1ccc(NC(=O)C(=O)N/N=C\c2ccc(CNC(=O)C(=O)Nc3ccc(C)c(C)c3)o2)c(OC)c1 |  | inconclusive: 31.6 µM [inhibitor, full curve]
Cc1ccc(N=C2NC(=O)/C(=C/c3cccnc3)S2)cc1C |  | inconclusive: 89.1 µM [inhibitor, single point]
O=C(O)c1c[nH]c2ccc(S(=O)(=O)N3CCN(c4ccc(F)cc4)CC3)cc2c1=O |  | active: 20 µM
N=c1oc2c3c4c(cc2cc1C(=O)Nc1ccccc1)CCCN4CCC3 | inactive: 11.9% | 
CCCc1c(C(=O)Nc2ccc(F)cc2F)cnn1-c1ccccc1 |  | inconclusive: 79.4 µM [inhibitor, partial curve, poor fit]
Cc1oc(-c2ccc(C(=O)Nc3cccc(C(F)(F)F)c3)cc2)nc1CSc1ccccc1 | inactive: 5.56% | 
COc1cc(C2CC(=O)NC(SCC(=O)Nc3ccccc3C)=C2C#N)ccc1O (configuration not stated) |  | inconclusive: 63.1 µM [inhibitor, partial curve, poor fit]
CCN(CC)CCCNC(=O)C1CCN(S(C)(=O)=O)CC1 | inactive: -1.22% | 
CCOC(=O)c1sc(NC(=O)C(C)Sc2nc(-c3ccccc3)cc(C(F)(F)F)n2)c(C(=O)OC)c1C (configuration not stated) |  | inconclusive: 10 µM [inhibitor, partial curve]
Cc1n[nH]c(C)c1CCc1nc2c3ccccc3nc(SCC(=O)Nc3ccc(F)cc3)n2n1 |  | inconclusive: 89.1 µM [inhibitor, single point]
COC(=O)c1scc(-c2ccc(C)cc2)c1S(=O)(=O)Nc1cccc(Cl)c1C |  | inconclusive: 50.1 µM [inhibitor, partial curve]
O=c1oc2c(-c3ccc([N+](=O)[O-])cc3)cc(O)cc2s1 |  | inconclusive: 44.7 µM [inhibitor, partial curve]
O=C(Cn1c(NCCCO)nc2ccccc21)c1ccc(F)cc1 |  | inconclusive: 79.4 µM [inhibitor, single point]
CCN(CC)c1ccc(NC(=O)c2ccc(Br)o2)cc1 |  | inconclusive: 89.1 µM [inhibitor, single point]
CC(/C=N/n1c(COc2ccccc2)n[nH]c1=S)=C\c1ccco1 |  | inconclusive: 28.2 µM [inhibitor, partial curve]
COc1ccc(NC(=O)c2sc(N)nc2-c2ccccc2)cc1 |  | inconclusive: 89.1 µM [inhibitor, single point]
O=c1cc(CSc2nnc(Nc3ccccc3)s2)nc2sccn12 |  | inconclusive: 11.2 µM [inhibitor, partial curve, poor fit]
CCOc1ccc(NC(=O)c2cc(S(=O)(=O)N3CCCC3)c[nH]2)cc1 | inactive: 2.74% | 
COc1ccc(-c2nc3nc(C)cc(Nc4cccc(C(F)(F)F)c4)n3n2)cc1 |  | inconclusive: 25.1 µM [inhibitor, full curve, poor fit]
CCOc1ccc(C(=O)Cc2ccc3oc(C(=O)O)cc3c2)c(O)c1 |  | inconclusive: 39.8 µM [inhibitor, single point]
O=c1[nH][nH]c2cc(=O)n(-c3cccc(C(F)(F)F)c3)nc12 |  | inconclusive: 44.7 µM [inhibitor, partial curve, poor fit]

In a second layout: entries from further up
CCCc1c(C(=O)Nc2ccc(F)cc2F)cnn1-c1ccccc1
  Potency: inconclusive: 79.4 µM [inhibitor, partial curve, poor fit]
Cc1oc(-c2ccc(C(=O)Nc3cccc(C(F)(F)F)c3)cc2)nc1CSc1ccccc1
  activity change, negative = inhibition: inactive: 5.56%
